Experimental data reported in PubChem BioAssay AID248 (DTP/NCI, 2004).
The list shows only some results of the screen, not a fair sample: it is rich in T/C values a quarter to a half above the control, in often repeated tests (any T/C) and in doses without a T/C. Further doses and runs are listed elsewhere. T/C: endpoint of the treated group in % of that of the vehicle group. Some entries give survivors of the animals treated and no T/C: the source holds a T/C of zero for them, seemingly a mark for toxic or unscored doses. Some doses without a T/C left all or most animals alive at the check, yet need not have been tolerated: survival well below the control is almost never listed, so the zero probably covers shortened survival too. Counts of survivors are from the toxicity check (mostly the fifth day) where no day follows; animals may have died later. Schedule codes are those of the source, read here as Q, the interval in days (D) or hours (H), X, the number of doses. Some structures stand for samples that the source files as different forms (salt, stereo form or complex); doses refer to the form tested. For survival time, this PubChem deposit counts one and a half times the control or more as active, and values a quarter to a half above the control carry no call in these data; other NCI protocols may use other cut-offs. Some schedule codes hold Z or #, which are not explained here. Some T/C values are followed by the survivors on the day toxicity was checked, most often the fifth; without a count, all were alive then. Some doses were run more than once; the values are given in rising order.

Tested on: L1210 leukemia ip in BDF1 mice, survival T/C
Assay: NCI In Vivo Anticancer Drug Screen. Data for tumor model L1210 Leukemia (intraperitoneal) in B6D2F1 (BDF1) mice
Conditions: T/C endpoint: mean survival time, higher T/C = longer survival

Question: With `Cc1c2ccncc2c(C)c2c1[nH]c1ccccc12` as the compound, how does the T/C (dose: 8.0 mg/kg/injection, schedule: Q01DX009 (ip), vehicle: saline, evaluated on day 23) read?
Answer: 154 % of control

Question: And the T/C (dose: 8.0 mg/kg/injection, schedule: Q01DX009 (ip), vehicle: saline, evaluated on day 30)?
Answer: 145, 161, 163 % of control

Question: What about the T/C (dose: 8.0 mg/kg/injection, schedule: Q01DX009 (ip), vehicle: water) of the same compound?
Answer: 138 and 142 % of control

Question: And the T/C (dose: 8.0 mg/kg/injection, schedule: Q01DX009 (sc), vehicle: clinical formulation)?
Answer: 131 % of control

Question: And the survivor count (dose: 8.0 mg/kg/injection, schedule: Q03HX024 (ip), vehicle: acid diluted with saline)?
Answer: 9 of 10

Question: And the survivor count (dose: 9.37 mg/kg/injection, schedule: Q03HX008 (ip), vehicle: other)?
Answer: 3 of 8

Question: And the survivor count (dose: 9.37 mg/kg/injection, schedule: Q03HX016 (ip), vehicle: other)?
Answer: 2 of 8

Question: What about the T/C (dose: 9.37 mg/kg/injection, schedule: Q04DX003 (ip), vehicle: other) of the same compound?
Answer: 134 % of control

Question: And the T/C (dose: 9.37 mg/kg/injection, schedule: Q04DX003 (ip), vehicle: saline with Tween-80)?
Answer: 126 % of control

Question: What about the T/C (dose: 10.0 mg/kg/injection, schedule: Q01DX009 (ip), vehicle: other, evaluated on day 30) of the same compound?
Answer: 145 % of control

Question: What about the T/C (dose: 10.0 mg/kg/injection, schedule: Q01DX009 (ip), vehicle: other, evaluated on day 60) of the same compound?
Answer: 147 % of control

Question: What about the T/C (dose: 10.0 mg/kg/injection, schedule: Q03HX008 (ip), vehicle: acid diluted with saline) of the same compound?
Answer: 138 % of control

Question: And the T/C (dose: 10.0 mg/kg/injection, schedule: Q04DX009 (ip), vehicle: Klucel (hydroxypropylcellulose) (HPC))?
Answer: 143 % of control

Question: And the T/C (dose: 12.5 mg/kg/injection, schedule: Q01DX Z (ip), vehicle: saline)?
Answer: 135 % of control

Question: What about the T/C (dose: 12.5 mg/kg/injection, schedule: Q04DX003 (ip), vehicle: clinical formulation) of the same compound?
Answer: 136 % of control

Question: And the T/C (dose: 15.0 mg/kg/injection, schedule: Q01DX009 (oral), vehicle: saline)?
Answer: 137 % of control

Question: And the T/C (dose: 16.0 mg/kg/injection, schedule: Q01DX005 (ip), vehicle: other)?
Answer: 140 % of control

Question: And the T/C (dose: 16.0 mg/kg/injection, schedule: Q01DX009 (ip), vehicle: Klucel (hydroxypropylcellulose) (HPC))?
Answer: 132, 142, 153, 156, 166, 180 % of control

Question: And the T/C (dose: 16.0 mg/kg/injection, schedule: Q01DX009 (ip), vehicle: other, evaluated on day 23)?
Answer: 202 % of control

Question: And the T/C (dose: 16.0 mg/kg/injection, schedule: Q01DX009 (ip), vehicle: other, evaluated on day 30)?
Answer: 190 and 191 % of control

Question: And the T/C (dose: 16.0 mg/kg/injection, schedule: Q01DX009 (ip), vehicle: other, evaluated on day 40)?
Answer: 154 % of control

Question: And the T/C (dose: 16.0 mg/kg/injection, schedule: Q01DX009 (ip), vehicle: saline with Tween-80, evaluated on day 30)?
Answer: 135, 136, 145, 152, 156, 161, 162 [5 of 6 alive], 167, 175, 188, 194, 229 % of control

Question: And the T/C (dose: 16.0 mg/kg/injection, schedule: Q01DX009 (ip), vehicle: saline with Tween-80, evaluated on day 38)?
Answer: 115 % of control

Question: And the T/C (dose: 16.0 mg/kg/injection, schedule: Q01DX009 (ip), vehicle: saline with Tween-80, evaluated on day 60)?
Answer: 181, 202, 261 % of control

Question: And the T/C (dose: 16.0 mg/kg/injection, schedule: Q01DX009 (ip), vehicle: saline, evaluated on day 23)?
Answer: 180 % of control

Question: And the T/C (dose: 16.0 mg/kg/injection, schedule: Q01DX009 (ip), vehicle: saline, evaluated on day 30)?
Answer: 119, 176, 234 % of control

Question: And the T/C (dose: 16.0 mg/kg/injection, schedule: Q01DX009 (oral), vehicle: clinical formulation)?
Answer: 141 % of control

Question: And the T/C (dose: 16.0 mg/kg/injection, schedule: Q03HX008 (oral), vehicle: clinical formulation)?
Answer: 143 % of control

Question: What about the survivor count (dose: 16.0 mg/kg/injection, schedule: Q03HX016 (ip), vehicle: clinical formulation) of the same compound?
Answer: 10 of 10

Question: And the survivor count (dose: 16.0 mg/kg/injection, schedule: Q03HX024 (ip), vehicle: acid diluted with saline)?
Answer: 4 of 10

Question: What about the survivor count (dose: 16.0 mg/kg/injection, schedule: Q03HX024 (ip), vehicle: clinical formulation) of the same compound?
Answer: 7 of 10

Question: And the T/C (dose: 16.0 mg/kg/injection, schedule: Q04DX003 (ip), vehicle: Klucel (hydroxypropylcellulose) (HPC), evaluated on day 5)?
Answer: 128 % of control

Question: What about the T/C (dose: 16.0 mg/kg/injection, schedule: Q04DX003 (ip), vehicle: Klucel (hydroxypropylcellulose) (HPC), evaluated on day 60) of the same compound?
Answer: 128 % of control

Question: And the T/C (dose: 16.0 mg/kg/injection, schedule: Q04DX003 (ip), vehicle: clinical formulation)?
Answer: 134 % of control

Question: And the T/C (dose: 16.0 mg/kg/injection, schedule: Q## X003 (ip), vehicle: other)?
Answer: 136 % of control

Question: And the T/C (dose: 16.0 mg/kg/injection, schedule: Q## X009 (ip), vehicle: carboxymethylcellulose (CMC))?
Answer: 148 % of control

Question: What about the T/C (dose: 16.0 mg/kg/injection, schedule: Q## X024 (ip), vehicle: other) of the same compound?
Answer: 135 % of control

Question: And the T/C (dose: 18.75 mg/kg/injection, schedule: Q01DX001 (ip), vehicle: other)?
Answer: 113, 114, 120, 122 % of control

Question: And the T/C (dose: 18.75 mg/kg/injection, schedule: Q01DX001 (ip), vehicle: steroid suspending solution)?
Answer: 127 % of control

Question: What about the survivor count (dose: 18.75 mg/kg/injection, schedule: Q03HX008 (ip), vehicle: other) of the same compound?
Answer: 3 of 8

Question: And the survivor count (dose: 18.75 mg/kg/injection, schedule: Q03HX016 (ip), vehicle: other)?
Answer: 2 of 8

Question: What about the T/C (dose: 18.75 mg/kg/injection, schedule: Q04DX003 (ip), vehicle: clinical formulation) of the same compound?
Answer: 146 % of control

Question: And the T/C (dose: 18.75 mg/kg/injection, schedule: Q04DX003 (ip), vehicle: lactic acid)?
Answer: 144 % of control
